Experiment [1] has as its system SARS-CoV-2 -1 PRF reporter mCherry-FSE-GFP(-1). The experiment can be described thus: mCherry (red) intensity as percent of control; higher = higher upstream reporter expression. Particulars: 10 µM; 24 h; HEK293T.
In the next experiment the test system is HEK293T. The experiment can be described thus: percent viability (nuclei count) relative to control; higher = more viable cells. Particulars: 10 µM; 24 h.

Where “and” joins values, the source holds several entries; their conditions need not be identical. Identical values can stand only once. The list shows a part of the results. Repeats in this data set agree poorly, so a single value says little.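 HEK293T cells were given each compound shortly before transfection with a reporter in which red mCherry is followed by the SARS-CoV-2 frameshift element and then GFP in the −1 frame, so GFP appears only after frameshifting.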

In turn, `CN1[C@@H]2CC[C@H]1CC(OC(=O)C(O)c1ccccc1)C2` (some centres undefined) gave a mCherry in experiment [1] of 103%.

Consider `CC(C)NC[C@H](O)COc1cccc2ccccc12` [Propranolol S(-)], for which the mCherry in experiment [1] came to 85.8%.

Turning to `CCCCC(CC)COC(=O)C=Cc1ccc(OC)cc1` (centres undefined) [octinoxate], the mCherry in experiment [1] turned out to be 77.5%.

For the molecule `Cn1c(=O)c2[nH]cnc2n(C)c1=O` [Aminophylline], the mCherry in experiment [1] was 113%.

In experiment [1], `CC(=O)Oc1c(C)c(C)c2c(c1C)CCC(C)(CCC[C@H](C)CCC[C@H](C)CCCC(C)C)O2` (some centres undefined) showed a mCherry of 100%.

`CC(C)CN(C[C@@H](O)[C@H](Cc1ccccc1)NC(=O)O[C@H]1CO[C@H]2OCC[C@H]21)S(=O)(=O)c1ccc(N)cc1` [darunavir] came in with a mCherry in experiment [1] of 108%.

In turn, `O=C(O)c1cccnc1` [nicotinic acid] yielded a mCherry in experiment [1] of 78.2%.

In the case of `O=C(O)c1cc(/N=N/c2ccc(S(=O)(=O)Nc3ccccn3)cc2)ccc1O` [sulfasalazine], in experiment [1], the mCherry was found to be 77.3%.

`Cn1c(=O)c2c(ncn2C)n(C)c1=O`: the mCherry in experiment [1] came out at 86.9%.

Molecule `Cc1ncc(C[n+]2csc(CCO)c2C)c(N)n1` [Vitamin B1] registered a mCherry in experiment [1] of 117%.

Regarding `COc1cc2nc(N3CCN(C(=O)c4ccco4)CC3)nc(N)c2cc1OC`, in experiment [1], the mCherry worked out at 90.4%.

The molecule `O=C(O)c1cc(O)c(O)c(O)c1` had a mCherry in experiment [1] of 70.7%.

In turn, `CC(C)NCC(O)COc1cccc2ccccc12` (centres undefined) [propranolol] displayed a mCherry in experiment [1] of 84.6%.

For `O=C(O)c1cc(/N=N/c2ccc(S(=O)(=O)Nc3ccccn3)cc2)ccc1O`, in experiment [1], the mCherry amounted to 116%.

In turn, `CC1CCCC(C)N1CCCC(O)(c1ccccc1)c1ccccn1` (centres undefined) [pirmenol] yielded a mCherry in experiment [1] of 94.5%.

Regarding `COc1ccc(CCN(C)CCC[C@](C#N)(c2ccc(OC)c(OC)c2)C(C)C)cc1OC` [dexverapamil], the mCherry in experiment [1] is 106%.

Turning to `CC(=O)[C@H]1CC[C@H]2[C@@H]3CCC4=CC(=O)CC[C@]4(C)[C@H]3CC[C@]12C` [progesterone], the mCherry in experiment [1] was 90.7% and 97%.

On to `O=C(O)c1cc(/N=N/c2ccc(S(=O)(=O)Nc3ccccn3)cc2)ccc1O` [Sulfasalazine], for which the mCherry in experiment [1] is 88.5%.

Turning to `CC(O)C(=O)O.N` (centres undefined), the mCherry in experiment [1] is 87.8%.

`O=C(Nc1cc(Cl)cc(Cl)c1O)c1c(O)c(Cl)cc(Cl)c1Cl` [oxyclozanide]: in experiment [1], the mCherry came out at 116%.

`Cn1c(=O)c2nc[nH]c2n(C)c1=O`: the mCherry in experiment [1] was 100%.

Consider `COc1ccc2c(c1)c(CC(=O)O)c(C)n2C(=O)c1ccc(Cl)cc1` [indometacin], for which the mCherry in experiment [1] is 107% and 102%.

With `CC(C)(C)CC(C)(C)c1ccc(OCCOCC[N+](C)(C)Cc2ccccc2)cc1` [benzethonium chloride], the mCherry in experiment [1] came to 27.7%.

Turning to `Nc1ccc2cc3ccc(N)cc3nc2c1` [proflavine], in experiment [1], the mCherry amounted to 65.2%.

`COc1cc(NS(C)(=O)=O)ccc1Nc1c2ccccc2nc2ccccc12` gave a mCherry in experiment [1] of 152%.

`CCC1(c2ccccc2)C(=O)NCNC1=O` [primidone]: in experiment [1], the mCherry was 110%.

With `NC(=O)C1CCN(CCCN2c3ccccc3Sc3ccc(Cl)cc32)CC1` [pipamazine], the mCherry in experiment [1] turned out to be 35.3%.

For `C[C@]12CC[C@@H]3c4ccc(O)cc4CC[C@H]3[C@@H]1C[C@@H](O)[C@@H]2O` [Estriol], the mCherry in experiment [1] turned out to be 68.5%.

In the case of `Cc1ncc([N+](=O)[O-])n1CCO` [metronidazole], the mCherry in experiment [1] is 85.1% and 86.4%.

`CC1(C)[C@H](C(=O)O)N2C(=O)C[C@H]2S1(=O)=O`: in experiment [1], the mCherry amounted to 110%.

In turn, `C/C=C/c1ccc(OC)cc1` displayed a mCherry in experiment [1] of 117%.

In experiment [1], `O=c1[nH]cnc2c1ncn2[C@H]1CC[C@@H](CO)O1` [didanosine] returned a mCherry of 96.4%.

`CC1(C)[C@H](C(=O)O)N2C(=O)C[C@H]2S1(=O)=O` [sulbactam] gave a mCherry in experiment [1] of 99.4%.

The molecule `Cn1c(=O)c2[nH]cnc2n(C)c1=O` [aminophylline] gave a mCherry in experiment [1] of 80.5%.

`O=c1[nH]cnc2c1ncn2[C@H]1CC[C@@H](CO)O1` [Didanosine] displayed a mCherry in experiment [1] of 114%.

Molecule `O=C(O)CCCCC(=O)O` gave a mCherry in experiment [1] of 102%.

`CN(C)CCCN1c2ccccc2Sc2ccc(C(F)(F)F)cc21` [triflupromazine] had a mCherry in experiment [1] of 125%.

For the molecule `C=C(CC)C(=O)c1ccc(OCC(=O)O)c(Cl)c1Cl` [etacrynic acid], in experiment [1], the mCherry is 117% and 101%.

On to `CO[C@@]12[C@H](COC(N)=O)C3=C(C(=O)C(C)=C(N)C3=O)N1C[C@@H]1N[C@@H]12` [Mitomycin C], for which the mCherry in experiment [1] stood at 28.4%.

Regarding `CNC(C)C(O)c1ccccc1` (centres undefined) [racephedrine], the percent viability with HEK293T worked out at 205%. For the same molecule, the mCherry in experiment [1] is 116%.

Turning to `Cc1ncc(C[n+]2csc(CCO)c2C)c(N)n1`, in experiment [1], the mCherry was 94.1%.

`COc1ccc2c3c1O[C@H]1C(=O)CC[C@H]4[C@@H](C2)N(C)CC[C@]314` [hydrocodone]: the percent viability in the experiment with HEK293T amounted to 250%. The same molecule returned a mCherry in experiment [1] of 89.7%.

Consider `CC(C(=O)O)c1cccc(C(=O)c2ccccc2)c1` (centres undefined) [ketoprofen], for which the mCherry in experiment [1] was 88% and 94.8%.

As to `CC(C)NC[C@@H](O)COc1cccc2ccccc12`, the mCherry in experiment [1] was 127%.

On to `CO[C@@]12[C@H](COC(N)=O)C3=C(C(=O)C(C)=C(N)C3=O)N1C[C@@H]1N[C@@H]12`, for which, in experiment [1], the mCherry was determined as 178%.

Take `C[C@]12CC[C@@H]3c4ccc(O)cc4CC[C@H]3[C@@H]1C[C@H](O)[C@@H]2O`: in experiment [1], the mCherry was 109%.

`CC[C@H](C)C(=O)O[C@H]1C[C@H](O)C=C2C=C[C@H](C)[C@H](CC[C@@H]3C[C@@H](O)CC(=O)O3)[C@H]21` [Pravastatin Lactone] gave a mCherry in experiment [1] of 90.4%.

Take `CN[C@@H](C)[C@H](O)c1ccccc1` [Ephedra]: in the experiment with HEK293T, the percent viability amounted to 322%. Further, the mCherry in experiment [1] amounted to 92%.

In turn, `CN1CCN(c2c(F)cc3c(=O)c(C(=O)O)cn(CCF)c3c2F)CC1` [fleroxacin] displayed a mCherry in experiment [1] of 59.6%.

In the case of `Nc1ccc2cc3ccc(N)cc3nc2c1`, in experiment [1], the mCherry turned out to be 23.1%.

On to `CN[C@@H](C)[C@H](O)c1ccccc1`, for which, in the experiment with HEK293T, the percent viability amounted to 145%. The same molecule displayed a mCherry in experiment [1] of 106%.

Consider `CNC(=O)Oc1cccc2ccccc12` [carbaril], for which, in the experiment with HEK293T, the percent viability is 203%. In experiment [1], this molecule displayed a mCherry of 109%.

Regarding `CCc1cccc2cc(C(O)CNC(C)(C)C)oc12` (centres undefined) [bufuralol], the mCherry in experiment [1] is 68%.

`CC(C)C[C@@H](NC(=O)CNC(=O)[C@@H](NC=O)C(C)C)C(=O)N[C@@H](C)C(=O)N[C@@H](C(=O)N[C@H](C(=O)N[C@@H](C(=O)N[C@@H](Cc1c[nH]c2ccccc12)C(=O)N[C@H](CC(C)C)C(=O)N[C@@H](Cc1c[nH]c2ccccc12)C(=O)N[C@H](CC(C)C)C(=O)N[C@@H](Cc1c[nH]c2ccccc12)C(=O)N[C@H](CC(C)C)C(=O)N[C@@H](Cc1c[nH]c2ccccc12)C(=O)NCCO)C(C)C)C(C)C)C(C)C`: the percent viability in the experiment on HEK293T amounted to 3.32%.

The values are drawn from the supplement of paper PMC8256030.
